Source: paper PMC5322571

Molecular target: CA125 (Cancer Antigen 125, mucin glycoprotein) (human) (UniProt Q8WXI7)
Experiment: fluorescence anisotropy
Conditions: FA: 100 nM aptamer heat cycled in TGKM (25 mM Tris, 192 mM glycine, 5 mM KH2PO4, 1 mM MgCl2, pH 8.3), CA125 0-2000 U/mL in PBS, 0.13 mg/mL BSA, 90 min RT, read at 22 C, commercial protein, label: 5' TEX615 (Texas Red) for FA, FAM for APCE, single-stranded DNA

Q: Does “TGCCTTATTACTCTCTCCTGTTAAC [CA125_12 (CA125_12_NP, without primer regions)]” bind (heat cycled with Mg2+, affinity substantially reduced (abstract: abrogated), method not explicitly stated)?
A: Result: binds more weakly

Q: Does “ACTAGCTCCGATCTTTCTTATCTAC [CA125_1 (CA125_1_NP, without primer regions)]” bind (heat cycled without Mg2+ (PBS))?
A: Result: no binding

The exact form of at least one protein or probe is not confirmed. Negatives hold for the conditions tested. The comparison behind a weaker result is the experiment's own reference, which may not be listed here.
